No constants are given. Whether binding was seen depends on the method and setting. A result given as binding can be weak or reduced; the word gives no strength. For some assays here: In cells and extracts the contact can be indirect.
Tests used:
NstA-TAP (C. crescentus) = assay: pull-down; in vivo copurification: tandem affinity purification of TAP-tagged NstA from extracts of C. crescentus cells harboring parC-gfp or gfp-parE; immunoblot with anti-GFP; empty vector as control
[1] = biological target: purified ParC (C. crescentus); assay: far-Western, overlay or dot blot; blot containing 0.1 nM ParC, ParE or BSA incubated with 25 nM purified His6-SUMO-NstA and probed with monoclonal hexa-histidine antibody; both purified

Amino acid sequences for entries named in this document (tags omitted). A change or cut given only in a name is not applied to a line headed by its entry.
UniProt A0A0H3C9E0: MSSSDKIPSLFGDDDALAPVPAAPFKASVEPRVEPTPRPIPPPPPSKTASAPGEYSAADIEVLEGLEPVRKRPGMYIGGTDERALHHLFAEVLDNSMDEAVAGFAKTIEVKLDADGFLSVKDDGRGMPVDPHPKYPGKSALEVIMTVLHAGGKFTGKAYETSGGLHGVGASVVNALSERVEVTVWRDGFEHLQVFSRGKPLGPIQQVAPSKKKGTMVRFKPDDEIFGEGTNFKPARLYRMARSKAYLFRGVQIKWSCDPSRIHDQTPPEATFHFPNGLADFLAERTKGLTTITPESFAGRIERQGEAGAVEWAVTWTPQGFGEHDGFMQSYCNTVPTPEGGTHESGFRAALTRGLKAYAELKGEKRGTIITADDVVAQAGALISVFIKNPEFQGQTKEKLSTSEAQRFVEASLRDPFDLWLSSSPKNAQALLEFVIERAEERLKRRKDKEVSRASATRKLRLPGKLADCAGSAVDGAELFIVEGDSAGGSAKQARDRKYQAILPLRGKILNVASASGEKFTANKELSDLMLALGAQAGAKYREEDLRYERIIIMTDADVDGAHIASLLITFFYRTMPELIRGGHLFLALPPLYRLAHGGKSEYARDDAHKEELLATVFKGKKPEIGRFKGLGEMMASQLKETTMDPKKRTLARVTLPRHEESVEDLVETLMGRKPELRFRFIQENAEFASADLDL
UniProt A0A0H3CC90: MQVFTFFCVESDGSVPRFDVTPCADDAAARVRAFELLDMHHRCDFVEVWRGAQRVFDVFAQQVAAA

Substance	binding (NstA-TAP (C. crescentus))	binding [1]
GFP-ParE (from UniProt A0A0H3C9E0)	binds	–
His6-SUMO-NstA (from UniProt A0A0H3CC90)	–	binds
